Results reported in article PMC6892150, “Dimerization of MORC2 through its C-terminal coiled-coil domain enhances chromatin dynamics and promotes DNA repair” (Cell Communication and Signaling : CCS, 2019).

B1: microrchidia family CW-type zinc finger protein 2 (MORC2), full length, Flag- or HA-tagged (natural protein, human, UniProt Q9Y6X9 1-1032, looked up)
chain: MAFTNYSSLNRAQLTFEYLHTNSTTHEFLFGALAELVDNARDADATRIDIYAERREDLRGGFMLCFLDDGAGMDPSDAASVIQFGKSAKRTPESTQIGQYGNGLKSGSMRIGKDFILFTKKEDTMTCLFLSRTFHEEEGIDEVIVPLPTWNARTREPVTDNVEKFAIETELIYKYSPFRTEEEVMTQFMKIPGDSGTLVIIFNLKLMDNGEPELDIISNPRDIQMAETSPEGTKPERRSFRAYAAVLYIDPRMRIFIHGHKVQTKRLSCCLYKPRMYKYTSSRFKTRAEQEVKKAEHVARIAEEKAREAESKARTLEVRLGGDLTRDSRVMLRQVQNRAITLRREADVKKRIKEAKQRALKEPKELNFVFGVNIEHRDLDGMFIYNCSRLIKMYEKVGPQLEGGMACGGVVGVVDVPYLVLEPTHNKQDFADAKEYRHLLRAMGEHLAQYWKDIAIAQRGIIKFWDEFGYLSANWNQPPSSELRYKRRRAMEIPTTIQCDLCLKWRTLPFQLSSVEKDYPDTWVCSMNPDPEQDRCEASEQKQKVPLGTFRKDMKTQEEKQKQLTEKIRQQQEKLEALQKTTPIRSQADLKKLPLEVTTRPSTEEPVRRPQRPRSPPLPAVIRNAPSRPPSLPTPRPASQPRKAPVISSTPKLPALAAREEASTSRLLQPPEAPRKPANTLVKTASRPAPLVQQLSPSLLPNSKSPREVPSPKVIKTPVVKKTESPIKLSPATPSRKRSVAVSDEEEVEEEAERRKERCKRGRFVVKEEKKDSNELSDSAGEEDSADLKRAQKDKGLHVEVRVNREWYTGRVTAVEVGKHVVRWKVKFDYVPTDTTPRDRWVEKGSEDVRLMKPPSPEHQSLDTQQEGGEEEVGPVAQQAIAVAEPSTSECLRIEPDTTALSTNHETIDLLVQILRNCLRYFLPPSFPISKKQLSAMNSDELISFPLKEYFKQYEVGLQNLCNSYQSRADSRAKASEESLRTSERKLRETEEKLQKLRTNIVALLQKVQEDIDINTDDELDAYIEDLITKGD
notes: MORC2, human, full length (1032 residues by the printed numbering 950-1032 for the C-terminus); Flag-MORC2 and HA-MORC2 are two differently tagged copies of the same full-length protein; each chain carries one tag only; Written as one molecule because they are co-precipitated with each other to show self-association; Flag-MORC2 was the copy purified for cross-linking; HA-MORC2 was the copy …

What was measured:
[1] = molecular target: T1, microrchidia family CW-type zinc finger protein 2 (MORC2), full length, Flag- or HA-tagged (human) (UniProt Q9Y6X9); assay: co-IP; HEK293T co-transfected for 48 h; NP-40 lysis buffer (50 mM Tris-HCl pH 8, 150 mM NaCl, 0.5% NP-40, 10% glycerol, 2 mM MgCl2, 1 mM EDTA); anti-Flag or anti-HA magnetic beads overnight at 4 °C; immunoblotting
T1 sequence: B1 chain

[2] = molecular target: HA-MORC2 ∆C82 (deletion of C-terminal 82 amino acid) (human) (UniProt Q9Y6X9); assay: as above

Row | Molecule | binding [1] | binding [2]
1 | HA-MORC2 ∆C82 (deletion of C-terminal 82 amino acid) (from UniProt Q9Y6X9) (domain or fragment) | no binding | 
2 | B1 |  | no binding

No constants are given. Whether binding was seen depends on the method and setting. Binding seen in cells or lysates may run through a third protein. Where a sequence is shown, tags or fusion partners need not be part of it.
